Measurements published in publication doi:10.1101/2022.09.26.509472.
Substitutions are numbered along the chain they refer to. Results are given in words; binding and its absence hold for the method and conditions named. Binding seen in cells or lysates may run through a third protein. Some binding calls cover weakened binding; strength is not graded here. Where a sequence is shown, tags or fusion partners need not be part of it.

Amino acid sequences for entries named in this document (tags omitted). A change or cut given only in a name is not applied to a line headed by its entry.
UniProt Q5S007: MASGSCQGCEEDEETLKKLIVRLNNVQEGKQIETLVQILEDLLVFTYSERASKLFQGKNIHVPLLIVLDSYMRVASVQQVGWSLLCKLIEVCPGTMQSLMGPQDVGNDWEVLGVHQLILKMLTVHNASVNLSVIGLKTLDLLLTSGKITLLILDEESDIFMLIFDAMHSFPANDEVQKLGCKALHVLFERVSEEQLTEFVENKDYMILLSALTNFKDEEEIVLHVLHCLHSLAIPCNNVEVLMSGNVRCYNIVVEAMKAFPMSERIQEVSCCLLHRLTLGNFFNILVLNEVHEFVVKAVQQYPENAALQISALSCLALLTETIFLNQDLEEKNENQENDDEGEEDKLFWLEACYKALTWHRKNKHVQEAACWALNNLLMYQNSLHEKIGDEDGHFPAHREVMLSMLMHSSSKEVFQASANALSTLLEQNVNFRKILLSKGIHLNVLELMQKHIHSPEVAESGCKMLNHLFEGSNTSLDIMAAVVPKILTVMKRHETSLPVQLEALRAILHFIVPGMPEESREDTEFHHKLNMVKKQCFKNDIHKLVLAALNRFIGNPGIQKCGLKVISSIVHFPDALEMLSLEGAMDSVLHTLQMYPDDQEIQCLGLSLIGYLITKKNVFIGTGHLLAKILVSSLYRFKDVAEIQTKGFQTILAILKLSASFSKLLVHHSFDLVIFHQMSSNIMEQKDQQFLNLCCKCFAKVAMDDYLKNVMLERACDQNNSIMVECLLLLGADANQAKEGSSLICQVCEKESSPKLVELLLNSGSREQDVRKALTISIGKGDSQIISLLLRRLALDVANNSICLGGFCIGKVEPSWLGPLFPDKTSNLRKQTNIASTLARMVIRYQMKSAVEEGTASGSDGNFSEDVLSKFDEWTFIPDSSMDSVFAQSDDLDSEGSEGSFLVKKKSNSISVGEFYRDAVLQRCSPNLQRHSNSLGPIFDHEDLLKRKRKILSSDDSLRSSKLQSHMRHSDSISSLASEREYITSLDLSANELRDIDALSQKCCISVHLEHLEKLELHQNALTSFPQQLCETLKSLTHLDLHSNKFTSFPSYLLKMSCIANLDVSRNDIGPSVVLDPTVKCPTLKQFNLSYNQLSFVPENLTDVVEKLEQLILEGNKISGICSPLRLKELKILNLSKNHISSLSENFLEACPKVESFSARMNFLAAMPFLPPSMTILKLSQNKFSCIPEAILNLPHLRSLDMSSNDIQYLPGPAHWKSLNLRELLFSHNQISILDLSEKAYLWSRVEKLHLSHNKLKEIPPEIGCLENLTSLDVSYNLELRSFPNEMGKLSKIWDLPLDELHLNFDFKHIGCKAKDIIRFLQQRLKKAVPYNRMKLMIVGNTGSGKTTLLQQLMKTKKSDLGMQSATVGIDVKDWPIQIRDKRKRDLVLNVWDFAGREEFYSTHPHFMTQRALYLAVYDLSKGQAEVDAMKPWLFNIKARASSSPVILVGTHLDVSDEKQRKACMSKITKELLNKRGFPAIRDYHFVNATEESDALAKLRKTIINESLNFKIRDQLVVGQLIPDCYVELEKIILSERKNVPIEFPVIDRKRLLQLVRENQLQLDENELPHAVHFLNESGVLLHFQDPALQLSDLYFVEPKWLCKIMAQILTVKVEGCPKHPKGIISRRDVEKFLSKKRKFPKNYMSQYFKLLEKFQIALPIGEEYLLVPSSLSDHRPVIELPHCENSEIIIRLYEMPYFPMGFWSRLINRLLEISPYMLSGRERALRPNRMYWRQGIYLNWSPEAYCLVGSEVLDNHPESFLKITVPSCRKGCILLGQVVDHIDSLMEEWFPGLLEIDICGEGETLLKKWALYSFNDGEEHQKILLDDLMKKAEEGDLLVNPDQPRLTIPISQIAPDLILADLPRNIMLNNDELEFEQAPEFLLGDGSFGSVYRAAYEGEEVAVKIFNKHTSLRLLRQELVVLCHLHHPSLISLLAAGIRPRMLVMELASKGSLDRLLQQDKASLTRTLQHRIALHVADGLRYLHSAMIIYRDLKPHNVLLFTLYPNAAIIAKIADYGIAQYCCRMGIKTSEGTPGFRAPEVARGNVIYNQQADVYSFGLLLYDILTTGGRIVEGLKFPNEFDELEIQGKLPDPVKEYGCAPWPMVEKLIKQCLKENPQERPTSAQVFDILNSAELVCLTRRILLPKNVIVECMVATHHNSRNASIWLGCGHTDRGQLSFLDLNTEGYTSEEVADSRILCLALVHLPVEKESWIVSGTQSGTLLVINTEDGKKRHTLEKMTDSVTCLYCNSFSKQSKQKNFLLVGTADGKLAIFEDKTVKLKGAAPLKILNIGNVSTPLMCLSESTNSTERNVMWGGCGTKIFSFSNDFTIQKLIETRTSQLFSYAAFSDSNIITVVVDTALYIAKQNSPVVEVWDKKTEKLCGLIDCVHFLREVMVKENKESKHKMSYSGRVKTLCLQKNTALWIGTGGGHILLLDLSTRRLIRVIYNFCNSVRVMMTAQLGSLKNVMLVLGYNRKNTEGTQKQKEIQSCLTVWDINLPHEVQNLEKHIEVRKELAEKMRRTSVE

How the values were obtained:
Assay in all cases: co-IP
[1] = biological target: T1, GFP-Rab29 S185A (human) (UniProt O14966)
T1 sequence: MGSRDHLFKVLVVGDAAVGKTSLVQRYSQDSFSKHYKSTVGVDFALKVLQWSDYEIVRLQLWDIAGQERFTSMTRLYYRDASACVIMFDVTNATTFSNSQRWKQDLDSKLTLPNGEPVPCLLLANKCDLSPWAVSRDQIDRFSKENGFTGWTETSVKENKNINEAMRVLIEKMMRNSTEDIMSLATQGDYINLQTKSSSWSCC

[2] = biological target: T2, GFP-Rab29 S185E (human) (UniProt O14966)
T2 sequence: T1 sequence with A185E

[3] = biological target: T3, GFP-Rab29 S185D (human) (UniProt O14966)
T3 sequence: T1 sequence with A185D

[4] = biological target: T4, GFP-Rab29 wild-type (human Rab29) (human) (UniProt O14966)
T4 sequence: T1 sequence with A185S

Measured: binding

G2019S LRRK2 (leucine-rich repeat kinase 2, G2019S mutant) (from UniProt Q5S007 1-2527) (enzyme)
binds: all assays above
